According to ChEMBL document CHEMBL3085714 (J Med Chem, 2013):
The source gives many values for each of these; only a part stands here.

Legend:
Homo sapiens [1] = species: Homo sapiens; test: Selectivity for p38alpha MAP kinase (unknown origin) over VRK1 (unknown origin)
Homo sapiens [2] = species: Homo sapiens; test: Selectivity for p38alpha MAP kinase (unknown origin) over TXK (unknown origin)
Homo sapiens [3] = species: Homo sapiens; test: Selectivity for p38alpha MAP kinase (unknown origin) over TSK2 (unknown origin)
Homo sapiens [4] = species: Homo sapiens; test: Selectivity for p38alpha MAP kinase (unknown origin) over TRK-C (unknown origin)
Homo sapiens [5] = species: Homo sapiens; test: Selectivity for p38alpha MAP kinase (unknown origin) over TRK-B (unknown origin)
Homo sapiens [6] = species: Homo sapiens; test: Selectivity for p38alpha MAP kinase (unknown origin) over TBK1 (unknown origin)
Homo sapiens [7] = species: Homo sapiens; test: Selectivity for p38alpha MAP kinase (unknown origin) over TAOK3 (unknown origin)
Homo sapiens [8] = species: Homo sapiens; test: Selectivity for p38alpha MAP kinase (unknown origin) over SYK (unknown origin)
Homo sapiens [9] = species: Homo sapiens; test: Selectivity for p38alpha MAP kinase (unknown origin) over SRPK2 (unknown origin)
Homo sapiens [10] = species: Homo sapiens; test: Selectivity for p38alpha MAP kinase (unknown origin) over SRC (unknown origin)
Homo sapiens [11] = species: Homo sapiens; test: Selectivity for p38alpha MAP kinase (unknown origin) over SNARK (unknown origin)
Homo sapiens [12] = species: Homo sapiens; test: Selectivity for p38alpha MAP kinase (unknown origin) over SLK (unknown origin)
Homo sapiens [13] = species: Homo sapiens; test: Selectivity for p38alpha MAP kinase (unknown origin) over SAK (unknown origin)
Homo sapiens [14] = species: Homo sapiens; test: Selectivity for p38alpha MAP kinase (unknown origin) over S6K (unknown origin)
Homo sapiens [15] = species: Homo sapiens; test: Selectivity for p38alpha MAP kinase (unknown origin) over RPS6KA2 (unknown origin)
Homo sapiens [16] = species: Homo sapiens; test: Selectivity for p38alpha MAP kinase (unknown origin) over CDK9/CycT (unknown origin)
Homo sapiens [17] = species: Homo sapiens; test: Selectivity for p38alpha MAP kinase (unknown origin) over CDK6/CycD1 (unknown origin)
Homo sapiens [18] = species: Homo sapiens; test: Selectivity for p38alpha MAP kinase (unknown origin) over CDK4/CycD3 (unknown origin)
Homo sapiens [19] = species: Homo sapiens; test: Selectivity for p38alpha MAP kinase (unknown origin) over CDK1/CycE (unknown origin)
Homo sapiens [20] = species: Homo sapiens; test: Selectivity for p38alpha MAP kinase (unknown origin) over CAMK2A (unknown origin)
Homo sapiens [21] = species: Homo sapiens; test: Selectivity for p38alpha MAP kinase (unknown origin) over CAMK2B (unknown origin)
Homo sapiens [22] = species: Homo sapiens; test: Selectivity for p38alpha MAP kinase (unknown origin) over CAMK1D (unknown origin)
Homo sapiens [23] = species: Homo sapiens; test: Selectivity for p38alpha MAP kinase (unknown origin) over BLK (unknown origin)
Homo sapiens [24] = species: Homo sapiens; test: Selectivity for p38alpha MAP kinase (unknown origin) over ALK (unknown origin)
Homo sapiens [25] = species: Homo sapiens; test: Selectivity for p38alpha MAP kinase (unknown origin) over AKT1 (unknown origin)
Homo sapiens [26] = species: Homo sapiens; test: Selectivity for p38alpha MAP kinase (unknown origin) over ABL2 (unknown origin)
Homo sapiens [27] = species: Homo sapiens; test: Selectivity for p38alpha MAP kinase (unknown origin) over ABL1 G250E mutant (unknown origin)
Homo sapiens [28] = species: Homo sapiens; test: Selectivity for p38alpha MAP kinase (unknown origin) over ACV-RL1 (unknown origin)
Homo sapiens [29] = species: Homo sapiens; test: Selectivity for p38alpha MAP kinase (unknown origin) over wild type RET (unknown origin)
Homo sapiens [30] = species: Homo sapiens; test: Selectivity for p38alpha MAP kinase (unknown origin) over PRKG2 (unknown origin)
Homo sapiens [31] = species: Homo sapiens; test: Selectivity for p38alpha MAP kinase (unknown origin) over PKC-theta (unknown origin)
Homo sapiens [32] = species: Homo sapiens; test: Selectivity for p38alpha MAP kinase (unknown origin) over p38-gamma (unknown origin)
Homo sapiens [33] = species: Homo sapiens; test: Selectivity for p38alpha MAP kinase (unknown origin) over p38-beta (unknown origin)
Homo sapiens [34] = species: Homo sapiens; test: Selectivity for p38alpha MAP kinase (unknown origin) over NEK9 (unknown origin)
Homo sapiens [35] = species: Homo sapiens; test: Selectivity for p38alpha MAP kinase (unknown origin) over NEK1 (unknown origin)
Homo sapiens [36] = species: Homo sapiens; test: Selectivity for p38alpha MAP kinase (unknown origin) over MYLK2 (unknown origin)
Homo sapiens [37] = species: Homo sapiens; test: Selectivity for p38alpha MAP kinase (unknown origin) over MUSK (unknown origin)
Homo sapiens [38] = species: Homo sapiens; test: Selectivity for p38alpha MAP kinase (unknown origin) over MKK6 S207D/T211D double mutant (unknown origin)
Homo sapiens [39] = species: Homo sapiens; test: Selectivity for p38alpha MAP kinase (unknown origin) over MET Y1235D mutant (unknown origin)
Homo sapiens [40] = species: Homo sapiens; test: Selectivity for p38alpha MAP kinase (unknown origin) over MEKK2 (unknown origin)
Homo sapiens [41] = species: Homo sapiens; test: Selectivity for p38alpha MAP kinase (unknown origin) over MARK2 (unknown origin)
Homo sapiens [42] = species: Homo sapiens; test: Selectivity for p38alpha MAP kinase (unknown origin) over MARK3 (unknown origin)
Homo sapiens [43] = species: Homo sapiens; test: Selectivity for p38alpha MAP kinase (unknown origin) over MAPKAPK5 (unknown origin)
Homo sapiens [44] = species: Homo sapiens; test: Selectivity for p38alpha MAP kinase (unknown origin) over wild type LRRK2 (unknown origin)
Homo sapiens [45] = species: Homo sapiens; test: Selectivity for p38alpha MAP kinase (unknown origin) over LRRK2 R1441C mutant (unknown origin)
Homo sapiens [46] = species: Homo sapiens; test: Selectivity for p38alpha MAP kinase (unknown origin) over LRRK2 G2019S mutant (unknown origin)
Homo sapiens [47] = species: Homo sapiens; test: Selectivity for p38alpha MAP kinase (unknown origin) over wild type KIT (unknown origin)
Homo sapiens [48] = species: Homo sapiens; test: Selectivity for p38alpha MAP kinase (unknown origin) over KIT T670I mutant (unknown origin)
Homo sapiens [49] = species: Homo sapiens; test: Selectivity for p38alpha MAP kinase (unknown origin) over JAK2 (unknown origin)
Homo sapiens [50] = species: Homo sapiens; test: Selectivity for p38alpha MAP kinase (unknown origin) over HRI (unknown origin)
Homo sapiens [51] = species: Homo sapiens; test: Selectivity for p38alpha MAP kinase (unknown origin) over HIPK2 (unknown origin)
Homo sapiens [52] = species: Homo sapiens; test: Selectivity for p38alpha MAP kinase (unknown origin) over GSK3-beta (unknown origin)
Homo sapiens [53] = species: Homo sapiens; test: Selectivity for p38alpha MAP kinase (unknown origin) over GSK3-alpha (unknown origin)
Homo sapiens [54] = species: Homo sapiens; test: Selectivity for p38alpha MAP kinase (unknown origin) over GRK2 (unknown origin)
Homo sapiens [55] = species: Homo sapiens; test: Selectivity for p38alpha MAP kinase (unknown origin) over ERK1 (unknown origin)
Homo sapiens [56] = species: Homo sapiens; test: Selectivity for p38alpha MAP kinase (unknown origin) over EIF2AK3 (unknown origin)
Homo sapiens [57] = species: Homo sapiens; test: Selectivity for p38alpha MAP kinase (unknown origin) over EGFR T790M/L858R double mutant (unknown origin)
Homo sapiens [58] = species: Homo sapiens; test: Selectivity for p38alpha MAP kinase (unknown origin) over EGFR 746 to 750 deletion mutant (unknown origin)
Homo sapiens [59] = species: Homo sapiens; test: Selectivity for p38alpha MAP kinase (unknown origin) over DMPK (unknown origin)
Homo sapiens [60] = species: Homo sapiens; test: Selectivity for p38alpha MAP kinase (unknown origin) over CSK (unknown origin)
Homo sapiens [61] = species: Homo sapiens; test: Selectivity for p38alpha MAP kinase (unknown origin) over CSF1-R (unknown origin)
Homo sapiens [62] = species: Homo sapiens; test: Selectivity for p38alpha MAP kinase (unknown origin) over CLK4 (unknown origin)
Homo sapiens [63] = species: Homo sapiens; test: Selectivity for p38alpha MAP kinase (unknown origin) over CLK2 (unknown origin)
Homo sapiens [64] = species: Homo sapiens; test: Selectivity for p38alpha MAP kinase (unknown origin) over CK2-alpha2 (unknown origin)

Measured: Selectivity ratio

Cc1cc(F)c(NC(=O)c2ccsc2)cc1Nc1ccc2c(c1)OCc1ccc(OC[C@H](O)CO)cc1C2=O
> 1000: Homo sapiens [1] | Homo sapiens [2] | Homo sapiens [3] | Homo sapiens [4] | Homo sapiens [5] | Homo sapiens [6] | Homo sapiens [7] | Homo sapiens [8] | Homo sapiens [9] | Homo sapiens [10] | Homo sapiens [11] | Homo sapiens [12] | Homo sapiens [13] | Homo sapiens [14] | Homo sapiens [15] | Homo sapiens [16] | Homo sapiens [17] | Homo sapiens [18] | Homo sapiens [19] | Homo sapiens [20] | Homo sapiens [21] | Homo sapiens [22] | Homo sapiens [23] | Homo sapiens [24] | Homo sapiens [25] | Homo sapiens [26] | Homo sapiens [27] | Homo sapiens [28] | Homo sapiens [29] | Homo sapiens [30] | Homo sapiens [31] | Homo sapiens [32] | Homo sapiens [33] | Homo sapiens [34] | Homo sapiens [35] | Homo sapiens [36] | Homo sapiens [37] | Homo sapiens [38] | Homo sapiens [39] | Homo sapiens [40] | Homo sapiens [41] | Homo sapiens [42] | Homo sapiens [43] | Homo sapiens [44] | Homo sapiens [45] | Homo sapiens [46] | Homo sapiens [47] | Homo sapiens [48] | Homo sapiens [49] | Homo sapiens [50] | Homo sapiens [51] | Homo sapiens [52] | Homo sapiens [53] | Homo sapiens [54] | Homo sapiens [55] | Homo sapiens [56] | Homo sapiens [57] | Homo sapiens [58] | Homo sapiens [59] | Homo sapiens [60] | Homo sapiens [61] | Homo sapiens [62] | Homo sapiens [63] | Homo sapiens [64]
